Laboratory results: patent publication US20100119620A1, “SUPPRESSING MICROBIAL GROWTH IN PULP AND PAPER” (priority 2006, published 2010)

What was measured:
[1] = Compatibility with optical brightening agent: absorbance (350 nm) of Leucophor AP after halogen exposure; type: physicochemical; settings: 60 minutes
[2] = Vapor-phase corrosion of carbon steel

## [Na+].[O-]Cl [NaOC1, sodium hypochlorite]
[1]; 2.5 ppm Total C12, Leucophor AP 50 ppm
  % Absorbance Relative to Untreated Control Leucophor AP: 60%
[1]; 5 ppm Total C12, Leucophor AP 50 ppm
  % Absorbance Relative to Untreated Control Leucophor AP: 41%
[1]; 10 ppm Total C12, Leucophor AP 50 ppm
  % Absorbance Relative to Untreated Control Leucophor AP: 24%
[2]; 1 ppm Total C12
  Vapor-Phase Corrosion: 1.8 mpy
[2]; 2.5 ppm Total C12
  Vapor-Phase Corrosion: 1.7 mpy
